# Primary screen of a compound library

Chains of the proteins cited; added tags and fusions are not shown.
UniProt E9BF75, entry or part of it: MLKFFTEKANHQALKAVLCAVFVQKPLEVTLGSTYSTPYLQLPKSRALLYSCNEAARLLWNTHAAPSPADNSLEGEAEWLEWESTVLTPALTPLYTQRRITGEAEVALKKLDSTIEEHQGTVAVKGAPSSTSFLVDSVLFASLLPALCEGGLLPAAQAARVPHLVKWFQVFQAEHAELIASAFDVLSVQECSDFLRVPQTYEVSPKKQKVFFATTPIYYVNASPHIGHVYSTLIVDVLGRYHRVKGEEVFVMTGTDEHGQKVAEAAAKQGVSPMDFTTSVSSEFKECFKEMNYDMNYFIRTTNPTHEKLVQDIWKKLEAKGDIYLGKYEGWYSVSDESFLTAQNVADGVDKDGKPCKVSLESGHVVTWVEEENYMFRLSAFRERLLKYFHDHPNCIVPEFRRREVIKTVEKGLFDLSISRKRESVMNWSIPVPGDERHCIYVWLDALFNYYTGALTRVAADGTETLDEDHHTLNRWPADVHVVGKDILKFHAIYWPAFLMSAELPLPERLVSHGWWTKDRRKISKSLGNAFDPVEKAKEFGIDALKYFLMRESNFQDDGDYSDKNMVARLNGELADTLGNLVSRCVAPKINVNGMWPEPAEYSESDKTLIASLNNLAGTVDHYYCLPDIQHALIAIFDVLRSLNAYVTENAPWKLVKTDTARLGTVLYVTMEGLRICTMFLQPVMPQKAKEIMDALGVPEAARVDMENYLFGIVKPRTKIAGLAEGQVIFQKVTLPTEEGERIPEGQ

Results are percentages, as filed.
The record does not define 0% and 100%; most values in the screen are far below 50% and negative numbers occur (in some assays of this library far below -100).
The compounds are a random part of those screened.
A dash means the value is not listed here; it may have been measured.

LdMetRS: 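Methionyl-tRNA synthetase (putative), Leishmania donovani (UniProt E9BF75). Primary screen of methionyl-tRNA synthetase; the read-out is not stated. The test concentration is not given. Values are per cent inhibition. About 68,000 compounds were tested under these conditions; 0.035% (about 24) showed 50% or more at least once.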
Mtb heat-shock: 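Assay on Mycobacterium tuberculosis, filed only as a heat shock assay from Cornell; the read-out is not stated. The concentration is filed as 10 mM, unlikely as a test dose, so the dose is not known. Direction is inferred from retests: higher values go with stronger inhibition. Of about 69,000 compounds tested this way, about 930 (1.4%) reached 50% or more in at least one test.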

| compound | LdMetRS | Mtb heat-shock |
|---|---|---|
| `CN1C(=O)CCC12CCCN(Cc1nccs1)C2` (centres undefined) | 1.648 | - |
| `Cc1cc(C)nc(N2CCC(c3cc(CCO)[nH]n3)C2)n1` (centres undefined) | 10.25 | 10.07 |
| `Cc1ncoc1C(=O)N1CCCC(c2ccc3c(N)nn(C)c3n2)C1` (centres undefined) | 18.02 | 9.945 |
| `COCCN(C)C(C(=O)O)c1ccc2ccccc2c1` (centres undefined) | 13.12 | -8.068 |
| `CCCN(CCC)S(=O)(=O)NCCc1cc(C)ccc1OC` | 10.99 | -6.021 |
| `CCc1ccc(OCCN(C)C(=O)c2ccncc2Cl)cc1` | - | -17.67 |
| `O=C1CN(Cc2nnc(-c3ccc(Br)cc3)o2)CCN1` | 4.425 | 1.317 |
| `O=C(O)C(F)(F)F.[H][C@]12CCC[C@@]1(COCc1ccccn1)CN(S(=O)(=O)N(C)C)C2` | - | -47.11 |
| `CS(=O)(=O)NC[C@@H]1OC[C@H]2CN(Cc3ccsc3)CC[C@H]21` | 1.015 | - |
| `Cn1cc(C2=CCN(CCC(=O)NCc3ccc(Cl)cc3)CC2)cn1` | 15.97 | 10.13 |
| `COc1cc(CNCC2CN(C3CC3)CCO2)cc(OC)c1.Cl` (centres undefined) | - | 5.669 |
| `CN(Cc1ccccc1-n1cccn1)c1nc(N)nc2c1CCNCC2` | 4.969 | 6.062 |
| `COc1cc2[nH]c(=O)c(CN3CCCC(CO)C3)cc2c(OC)c1OC` (centres undefined) | 15.16 | -15.88 |
| `NC(=O)CSc1nnc2[nH]c(=O)c3c(n12)CCCC3` | 6.475 | 27.95 |
| `Cc1nnc(CNC(=O)C2CSCCC(=O)N2)o1` (centres undefined) | 13.24 | -7.458 |
| `O=C(Cn1c(=O)nc2n1C(=O)N(c1ccccc1)C2)NC1CCCCC1` | 19.88 | 12.29 |
| `Cc1nc(C)n(CC2CCCN(CC3CCCCC3)C2)n1` (centres undefined) | 20.99 | -1.996 |
| `Cc1nccc(N2CCC(=O)N(CC3CC3)C(C(C)C)C2)n1` (centres undefined) | 11.37 | 4.276 |
| `Cc1cc(C)n(CC(=O)N2CCCC(c3cc4cccnc4[nH]3)C2)n1` (centres undefined) | 14.89 | -8.872 |
| `Cc1ccccc1-c1noc(-c2ccc(NCC3COCCO3)nc2)n1` (centres undefined) | 19.05 | 7.506 |
| `Cn1cc(NC(=O)Cc2ccccc2Br)cc1C(N)=O` | 9.218 | 11.12 |
| `CC(C)(C)CC(=O)NS(=O)(=O)c1ccc(C#N)cc1C(F)(F)F` | 7.778 | -22.73 |
| `Cc1ccc(C(C)NC(=O)Cc2c(C)nc3c(c2C)c(=O)[nH]n3C)o1` (centres undefined) | -7.874 | 14.79 |
| `Cc1nc(C2CCCN2CC(=O)NCCc2ccc(Cl)cc2)no1` (centres undefined) | 13.97 | -0.2601 |
| `Cl.NCC1CCCCN1C(=O)Cc1ccc(F)c(F)c1` (centres undefined) | - | -19.26 |
| `CCN(CC)CCCNC(=O)Nc1c(C)cccc1C(C)C` | 11.38 | 9.202 |
| `Cn1cc(CN2CCc3onc(C(=O)N4CCCC4)c3C2)cn1` | 9.89 | - |
| `Cc1noc(C)c1CN1C[C@@H]2COC[C@@H](CC(=O)N3CCCCO3)[C@@H]2C1` | 10.45 | - |
| `Cc1nc(C)n(CC2CCCN2CC(=O)NC2CCOCC2)n1` (centres undefined) | 12.05 | 5.226 |
| `Cc1nc(-c2ccncc2)ncc1C(C)NC(=O)CN1CCOC1=O` (centres undefined) | 1.023 | 15.79 |
| `CC(C)NS(=O)(=O)c1ccccc1CNCc1cccc(O)c1` | 18.09 | 15.53 |
| `Cc1ocnc1C(=O)N(C)[C@@H]1CCC[C@@H](N2CCCC2)[C@@H]1O` | 0.3145 | -21.92 |
| `[H][C@@]12CN(Cc3cccnc3OC)C[C@]1([H])CN(c1ncccn1)C2` | - | -5.028 |
| `O=C(Nc1nnn[nH]1)c1ccc(I)c(F)c1` | 6.015 | -38.53 |
| `CCN1CC(C(=O)N2CCC(Oc3ccccc3Cl)CC2)CC1=O` (centres undefined) | 1.5 | -26.93 |
| `CC(=O)N(C)Cc1ccc(OCc2cccs2)cc1` | 8.696 | 3.89 |
| `O=C(O)C(F)(F)F.O=C(O)C(F)(F)F.[H][C@@]12CN(Cc3ccccn3)C[C@]1([H])C(=O)N(c1cnn(C)c1)C2` | - | -0.9198 |
| `CCNc1ccnc(CN2CCCC2C(=O)Nc2nccs2)c1` (centres undefined) | 2.957 | 13.04 |
| `Cc1nc(CN2C(=O)CCC23CCN(Cc2ccoc2)CC3)cs1` | 15.62 | - |
| `O=C(CCC1CCCC1)NCc1nnc2ccccn12` | 11.03 | -7.75 |
| `NC(=O)C1CCN(Cc2ccc(S(=O)(=O)N3CCCC3)o2)CC1` | 12.32 | -15.17 |
| `Cc1cnc(C(=O)N2CCN(C(=O)CC(C)C)[C@@H]3CS(=O)(=O)C[C@@H]32)cn1` | 19.51 | - |
| `CC(=O)N1CCC2(CC1)C(=O)N(c1ccc(C)nc1)CCN2CC(C)C` | 15.58 | -24.3 |
| `Cc1cc(NC(C)C(=O)N2CCN(c3ncccn3)CC2)ccc1F` (centres undefined) | 9.239 | -26.1 |
| `CCc1ncc(C(=O)N2CCN(Cc3ncccc3C)CC2)cn1` | 7.592 | -2.699 |
| `Cc1cc(=O)[nH]cc1C(=O)N1Cc2ccccc2N(C)CC1C` (centres undefined) | 13.4 | -11.74 |
| `Cc1cccc(CS(=O)(=O)NCc2nn(C)c3c2COCC3)c1` | 10.79 | 9.643 |
| `Cc1cnc2n(c1=O)CC(C(=O)Nc1ccccc1Cl)CS2` (centres undefined) | 10.34 | -6.844 |
| `COc1ccccc1C(=O)N(Cc1nc(C)cs1)CC1CCCO1` (centres undefined) | 7.483 | -24.63 |
| `CC(C)(CO)CCCNC(=O)NC1(c2ccccc2F)CC1` | 10.28 | -7.596 |
| `CCOc1ccc(S(=O)(=O)C(C)C(=O)Nc2cc(C)no2)cc1` (centres undefined) | 2.842 | -11.99 |
| `[H][C@@]12CCN(C(=O)Cc3cccs3)[C@@]1([H])CC(=O)N2CC1CC1` | - | -11.09 |
| `CCn1ccnc1CN1CCCC1c1noc(C2CC2)n1` (centres undefined) | 7.229 | -4.423 |
| `Cc1cc(CS(=O)(=O)N(C)C(C)c2ccc(Cl)cc2)on1` (centres undefined) | 16.62 | -1.868 |
| `CC(NC(=O)c1cc(=O)n(C)c(=O)n1C)c1ccccc1-n1cccn1` (centres undefined) | 10.99 | 10.91 |
| `Cc1noc(C)c1C(=O)N1CCC(c2[nH]ncc2S(C)(=O)=O)C1` (centres undefined) | 7.765 | -16.68 |
| `O=c1n(CCSCc2ccccc2Cl)nc2ccccn12` | 5.842 | 27.91 |

For reference, 5 entries once more:

Cc1nc(C)n(CC2CCCN(CC3CCCCC3)C2)n1 (centres undefined) read LdMetRS: 20.99%; Mtb heat-shock: -1.996%.
COCCN(C)C(C(=O)O)c1ccc2ccccc2c1 (centres undefined) read LdMetRS: 13.12%; Mtb heat-shock: -8.068%.
Cc1nc(C2CCCN2CC(=O)NCCc2ccc(Cl)cc2)no1 (centres undefined) read LdMetRS: 13.97%; Mtb heat-shock: -0.2601%.
COc1cc2[nH]c(=O)c(CN3CCCC(CO)C3)cc2c(OC)c1OC (centres undefined) read LdMetRS: 15.16%; Mtb heat-shock: -15.88%.
Cc1cnc(C(=O)N2CCN(C(=O)CC(C)C)[C@@H]3CS(=O)(=O)C[C@@H]32)cn1 read LdMetRS: 19.51%.

From ChEMBL document CHEMBL3988442, “University of Dundee, Small-Polar-MMV Screening Library” (2021).